The source of these data is patent US20250205191A1, “R(-)-MDMA COMPOSITIONS AND METHODS OF TREATMENT” (EmpathBio, Inc., priority 2023, published 2025).

Structures are written as SMILES.

This data set deals with mature BDNF (mBDNF). The data set is described as follows: Phase 1 neuroplasticity biomarker mBDNF. Type of data set: in vivo, human.

With `CN[C@H](C)Cc1ccc2c(c1)OCO2` [R(−)-MDMA, R(−)-3,4-methylenedioxymethamphetamine], the “mean concentration of mBDNF” value is, setting by setting: (125 mg group in the fed state, Day 10) “nominal increase”; (R(−)-MDMA Total group, Day 2) “nominal reduction”. For the same compound, the mBDNF change entry (225 mg group, Day +1) is on record as “numerical increase” and the mBDNF change result (all other cohorts (75, 125, 175 mg)) is listed as “numerical decreases”.
